Assay results published in US20070196377A1.
Results are given in words; binding and its absence hold for the method and conditions named. Binding seen in cells or lysates may run through a third protein. Some binding calls cover weakened binding; strength is not graded here. Where a sequence is shown, tags or fusion partners need not be part of it.

Amino acid sequences for entries named in this document (tags omitted). A change or cut given only in a name is not applied to a line headed by its entry.
UniProt P60766: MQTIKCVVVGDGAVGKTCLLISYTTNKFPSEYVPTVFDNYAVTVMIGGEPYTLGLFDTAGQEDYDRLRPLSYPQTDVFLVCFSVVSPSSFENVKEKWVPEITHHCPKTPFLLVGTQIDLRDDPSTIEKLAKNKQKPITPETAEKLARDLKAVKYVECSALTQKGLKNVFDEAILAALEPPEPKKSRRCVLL

What was measured:
[1] = molecular target: Cdc42 expressed as an N-terminal GST-fusion protein (Mus musculus (Mouse)) (UniProt P60766); assay: GST pull-down, anti-FLAG Western blot (FIG. 2)
[2] = molecular target: RhoA expressed as an N-terminal GST-fusion protein (Canis lupus familiaris (Dog) (Canis familiaris)) (UniProt P24406); assay: GST pull-down, anti-FLAG Western blot (FIG. 2)
[3] = molecular target: Cdc42 expressed as an N-terminal GST-fusion protein (Mus musculus (Mouse)) (UniProt P60766); assay: GST pull-down, anti-FLAG Western blot
[4] = molecular target: RhoA expressed as an N-terminal GST-fusion protein (Canis lupus familiaris (Dog) (Canis familiaris)) (UniProt P24406); assay: GST pull-down, anti-FLAG Western blot

Measured: binding

B1: hj03796 DH/PH (C-terminal FLAG-tagged protein) (protein, not shown: small tags and cut ends)
chain: MKLSYLGRVVREIVETERMYVQDLRSIVEDYLLKIIDTPGLLKPEQVSALFGNIENIYALNSQLLRDLDSCNSDPVAVASCFVERSQEFDIYTQYCNNYPNSVAALTECMRDKQQAKFFRDRQELLQHSLPLGSYLLKPVQRILKYHLLLQEIAKHFDEEEDGFEVVEDAIDTMTCVAWYINDMKRRHEHAVRLQEIQSLLINWKGPDLTTYGELVLEGTFRVHRVRNERTFFLFDKTLLITKKRGDHFVYKGNIPCSSLMLIESTRDSLCFTVTHYKHSKQQYSIQAKTVEEKRNWTHHIKRLILENHHATIPQKAKEAILEMDSYYPNRYRCSPERLKKAWSSQDEVSTNVRQGRRQSEPTKHL
binds: [1] | [2] | [3] | [4]
